{
  "source": "patent US20090118354A1",
  "about": "“Liquid Pharmaceutical Formulations of Docetaxel” (MAYNE PHARMA LIMITED, priority 2005, published 2009)",
  "origin": "cited, not measured here",
  "details": "cited from earlier work",
  "data": [
    {"smiles": "CC(=O)O[C@@]12CO[C@@H]1C[C@H](O)[C@@]1(C)C(=O)[C@H](O)C3=C(C)[C@@H](OC(=O)[C@H](O)[C@@H](NC(=O)OC(C)(C)C)c4ccccc4)C[C@@](O)([C@@H](OC(=O)c4ccccc4)[C@H]21)C3(C)C", "note": "[Docetaxel, (2R,3S)-N-carboxy-3-phenylisoserine,N-tert-butylester, 13 ester with 5β-20-epoxy-1,2α,4,7β,10β,13α-hexahydroxytax-11-en-9-one 4-acetate 2 benzoate]", "values": [
      {"measurement": "solubility in ethanol", "result": "soluble in ethanol"},
      {"measurement": "solubility in water", "result": "practically insoluble in water"}
    ]}
  ]
}
